The test deals with neurotensin receptor 1 (NTR1) of PC3 cells (UniProt P30989). As to the kind of experiment: UV crosslinking on PC3 cells, immunoprecipitation with Ab-NTR1.

Results are given in words; binding and its absence hold for the method and conditions named. Some results given as binding are weak or reduced against the parent protein; the word gives no strength.

The values below come from patent publication US20090203048A1 (UNIVERSITY OF MASSACHUSETTS, published 2009).

B1: ^125I-[4-azido-Phe^6]-NT (peptide)
peptide: ELYENFPRRPYIL
modifications: 4-azido-Phe at position 6; pGlu at position 1; 125I iodinated
notes: the residue at 6 is 4-azido-phenylalanine
On to B1, for which the binding result is reported as “binds”.
